Data from patent publication US20080160035A1.
No constants are given. Whether binding was seen depends on the method and setting. Some binding calls cover weakened binding; strength is not graded here.

By UniProt entry, the sequences of proteins in these tests, tags left out. Residues count along the entry.
UniProt P24394, residues 26-232: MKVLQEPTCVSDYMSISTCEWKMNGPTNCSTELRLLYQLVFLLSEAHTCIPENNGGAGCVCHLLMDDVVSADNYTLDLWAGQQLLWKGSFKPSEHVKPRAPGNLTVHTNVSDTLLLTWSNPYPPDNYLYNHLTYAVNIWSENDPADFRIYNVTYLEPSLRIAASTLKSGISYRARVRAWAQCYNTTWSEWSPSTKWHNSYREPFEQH

Tests used:
[1] = molecular target: monomeric hIL-4R (R&D Systems) (human) (UniProt P24394); assay: Western blot, reducing SDS-PAGE
[2] = molecular target: monomeric hIL-4R (R&D Systems) (human) (UniProt P24394); assay: Western blot, non-reducing SDS-PAGE
[3] = molecular target: hIL-4R (human) (UniProt P24394); assay: screen of hybridoma conditioned media
[4] = molecular target: dimeric hIL-4R-hFc (human) (UniProt P24394); assay: OCTET sequential binding assay, biotin-hIL-4R-hFc on streptavidin biosensors, first antibody at 50 µg/ml

Measured: binding

B1: VAB 16F3-1 (antibody, V domains shown)
VH: QVQLVQSGAEVKKPGASVKVSCKASGYTFNSYGISWVRQAPGQGLEWMGWIRTYNGNTNYAQKLQGRVTMTTDTSTSTAYMELRSLRSDDTAVYYCARDEARIVVAGTTPYYYGMDVWGQGTTVTVSS
VL: DIQMTQSPSSVSASVGDRVTITCRASQDISIWLAWYQQSPGKAPKLLINVASRLQSGVPSRFSGSGSGTDFTLTINSLQPEDFVTYYCQQANSFPITFGQGTRLATK
binds: all assays above
